{
  "sequences": {"note": "By UniProt entry, the sequences of proteins in these tests, tags left out. Where a name states a change or a piece, a line headed by the entry shows the natural chain unless it says otherwise.", "UniProt P18054": "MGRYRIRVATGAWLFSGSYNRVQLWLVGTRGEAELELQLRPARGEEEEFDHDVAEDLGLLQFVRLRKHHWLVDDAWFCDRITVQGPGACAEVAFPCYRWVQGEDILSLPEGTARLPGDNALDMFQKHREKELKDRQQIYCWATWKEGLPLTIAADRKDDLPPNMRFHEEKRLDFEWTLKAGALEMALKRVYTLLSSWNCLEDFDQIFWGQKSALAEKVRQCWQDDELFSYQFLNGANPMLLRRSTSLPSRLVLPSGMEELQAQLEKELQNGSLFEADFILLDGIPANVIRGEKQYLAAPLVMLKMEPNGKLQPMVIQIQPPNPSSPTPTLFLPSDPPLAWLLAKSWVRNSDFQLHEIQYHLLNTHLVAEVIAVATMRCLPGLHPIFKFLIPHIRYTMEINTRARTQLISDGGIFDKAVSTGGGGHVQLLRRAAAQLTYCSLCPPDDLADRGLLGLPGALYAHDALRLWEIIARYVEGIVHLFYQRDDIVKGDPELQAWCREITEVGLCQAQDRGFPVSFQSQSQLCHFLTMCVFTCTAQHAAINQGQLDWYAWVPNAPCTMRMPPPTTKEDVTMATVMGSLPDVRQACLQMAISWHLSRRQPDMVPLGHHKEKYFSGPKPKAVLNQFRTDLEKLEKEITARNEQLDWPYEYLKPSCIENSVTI"},
  "source": "PubChem BioAssay AID1671190",
  "about": "(National Center for Advancing Translational Sciences (NCATS), 2021)",
  "note": "Values joined by “and” are separate entries in the source; they are usually repeats but may differ in a detail not shown here. Equal entries are not always repeated. Screen size: about 580,000 compounds; about 6,100 (1.1%) were called active. This list was built around the results that the source calls inconclusive (neither active nor inactive); the mix of calls is not that of the screen. Calls come from the whole dose curve; as a rule, active = well fitted inhibition curve with a large enough effect; inconclusive = small, poorly fitted or top-dose-only effect, or another doubt; inactive = no such curve, though single readings can be large or run the other way. Where the call is inconclusive, the potency comes from a doubtful curve fit. % is set by controls: 0 for no effect and ±100 for the full control effect; potency is the fitted concentration of half-maximal effect.",
  "data": [
    {"biological_target": "Polyunsaturated fatty acid lipoxygenase ALOX12 (Homo sapiens) (UniProt P18054)", "assay": "Primary qHTS assay for inhibitors of human arachidonate 12S-lipoxygenase (ALOX12): Round 2", "settings": "purified 12hLO, xylenol orange hydroperoxide absorbance; activity change, negative = inhibition: at 108 µM (top of the series) unless noted", "in_short": "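Purified human 12hLO at 150 nM in 25 mM Hepes, 0.01% Triton X-100, pH 7.0, preincubated 15 min at room temperature with compound. Reaction started with 40 uM arachidonic acid, 30 min at room temperature. Hydroperoxide measured by Fe-xylenol orange, 573/405 nm absorbance ratio.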", "values": [
      {"smiles": "Clc1ccc(N/N=C/c2cccc(Br)c2)cc1Cl", "Potency": "inconclusive: 6.31 µM [inhibitor, full curve, poor fit]"},
      {"smiles": "COc1ccc(NC(=O)CSc2nc(N3CCOCC3)c3c(c2C#N)CC(C)(C)OC3)cc1", "Potency": "inconclusive: 89.1 µM [inhibitor, single point]"},
      {"smiles": "COC(=O)c1c(NC(=O)c2c(-c3ccccc3Cl)noc2C)sc2c1CCCC2", "Potency": "inconclusive: 22.4 µM [inhibitor, partial curve]"},
      {"smiles": "COc1ccc(-c2nc3cc(NC(=O)c4ccccc4Cl)ccc3o2)cc1OC", "Potency": "inactive"},
      {"smiles": "N#C/C(=C/c1ccccc1[N+](=O)[O-])c1ccc(C(F)(F)F)cn1", "Potency": "inconclusive: 39.8 µM [inhibitor, partial curve]"},
      {"smiles": "Cc1cc(C)c2c(N)c(C#N)sc2n1", "Potency": "inactive"},
      {"smiles": "O=C(NCC(c1ccco1)N1CCc2ccccc2C1)c1ccc(Cl)cc1", "note": "(centres undefined)", "Potency": "active: 14.1 µM"},
      {"smiles": "Cn1c(C(=O)NCCNC(=O)CC2CCCCC2)cc2ccccc21", "Potency": "inconclusive: 3.98 µM [inhibitor, full curve, poor fit]"},
      {"smiles": "COc1ccc(-c2csc(C(C)(O)c3ccc(OC)cc3)n2)cc1", "note": "(centres undefined)", "Potency": "inconclusive: 100 µM [inhibitor, single point]"},
      {"smiles": "CN(C(=O)COc1cc(=O)n(C)c2ccccc12)c1cccc(Cl)c1", "Potency": "inconclusive: 44.7 µM [inhibitor, single point]"},
      {"smiles": "CCN(CC)C(=O)c1c(-c2ccc(OC)cc2)noc1[C@H](C)O", "Potency": "inactive"},
      {"smiles": "CCOC(=O)c1c(NC(=O)COC(=O)CCNS(=O)(=O)c2ccccc2)sc(C(=O)NC)c1C", "Potency": "inconclusive: 44.7 µM [inhibitor, partial curve, poor fit]"},
      {"smiles": "O=C(CSc1nc(-c2ccco2)cc(C(F)(F)F)n1)N1CCN(c2cccc(Cl)c2)CC1", "Potency": "inactive"},
      {"smiles": "O=C(O)c1cc(-c2ccc(/C=N/Nc3ccc(Cl)cc3)o2)ccc1Cl", "Potency": "inconclusive: 7.08 µM [inhibitor, full curve, poor fit]"},
      {"smiles": "C=CCNc1nc(C(=O)OCC(=O)c2ccc(C(C)(C)C)cc2)cs1", "Potency": "inconclusive: 14.1 µM [inhibitor, partial curve, poor fit]"},
      {"smiles": "Cc1ccc(C(=O)N2CCCC3(C2)C(=NC2CCCC2)NC(=O)N3c2cc(F)cc(F)c2)cc1", "note": "(centres undefined)", "activity change, negative = inhibition": "inconclusive: -32.7% [inhibitor]"},
      {"smiles": "Cc1ccc(C(=O)Nc2nc3ccc(Cl)cc3s2)o1", "Potency": "inconclusive: 141 µM [inhibitor, single point]"},
      {"smiles": "COc1cc2c(cc1OC)C(COc1ccc3c(C)cc(=O)oc3c1)N(C(=O)c1ccc(Cl)cc1)CC2", "note": "(centres undefined)", "Potency": "inconclusive: 112 µM [inhibitor, single point]"},
      {"smiles": "CC(=O)C1=CCC(c2ccc(F)cc2)N(S(=O)(=O)c2ccc(C)cc2)C1", "note": "(centres undefined)", "Potency": "inactive and inconclusive: 35.5 µM [inhibitor, partial curve, poor fit]"},
      {"smiles": "Cc1cccc(-c2nocc2CCC(=O)N2CCN(c3cccc(C)c3)CC2)c1", "Potency": "inconclusive: 39.8 µM [inhibitor, full curve, poor fit]"},
      {"smiles": "CCCCCCCCCCCCN1C(=O)CSC1c1cccnc1", "note": "(centres undefined)", "Potency": "inconclusive: 44.7 µM [inhibitor, partial curve, poor fit]"},
      {"smiles": "CO[C@H]1C(=O)N(C2CCN(C(=O)CCn3cccn3)CC2)[C@H]1c1ccncc1", "Potency": "inconclusive: 100 µM [inhibitor, single point]"},
      {"smiles": "COc1ccccc1N=Cc1c(C)c(C#N)c2[nH]c3ccccc3n2c1=O", "Potency": "inactive"},
      {"smiles": "CCOc1cc(N2CCOCC2)c(OCC)cc1NC(=S)NCCCOC", "Potency": "inconclusive: 50.1 µM [inhibitor, partial curve, poor fit]"},
      {"smiles": "CSCC(=O)N[C@H]1CCN2C(=O)c3cc(/C=C/c4ccccc4)ccc3NC(=O)[C@H]12", "Potency": "inconclusive: 112 µM [inhibitor, single point]"},
      {"smiles": "C[C@@H](CSc1ccccc1)CN1CC[C@H](O)CCC1=O", "Potency": "inactive"},
      {"smiles": "Cn1c(=O)c2cc(NC(=S)NC3CCCCC3)ccc2n1Cc1cccc(C(F)(F)F)c1", "Potency": "inconclusive: 12.6 µM [inhibitor, full curve, poor fit]"},
      {"smiles": "Cc1cc(-c2n[nH]c(=S)n2/N=C/c2sccc2C)n[nH]1", "Potency": "inconclusive: 50.1 µM [inhibitor, partial curve, poor fit]"},
      {"smiles": "COc1ccc(OC)c(NC(=O)CSC2=Nc3ccccc3C3=NC(CC(=O)NCc4ccc5c(c4)OCO5)C(=O)N23)c1", "note": "(centres undefined)", "Potency": "inconclusive: 39.8 µM [inhibitor, partial curve, poor fit]"},
      {"smiles": "CN(CC(=O)Nc1ccc2[nH]c(=O)[nH]c2c1)Cc1ccccc1N1CCCCC1", "Potency": "inactive"},
      {"smiles": "C/C=C/C=C/C(=O)NC1CC2CCC1(C)C2(C)C", "note": "(centres undefined)", "Potency": "inconclusive: 15.8 µM [inhibitor, full curve]"},
      {"smiles": "CCCCOCC(O)Cn1c(C)nc2ccccc21", "note": "(centres undefined)", "Potency": "inconclusive: 1.41 µM [inhibitor, full curve, poor fit]"},
      {"smiles": "C[C@H]1CN([C@@H](C)CO)C(=O)c2cc(NC(=O)C3CCCCC3)ccc2O[C@H]1CN(C)S(=O)(=O)c1ccccc1", "Potency": "inconclusive: 56.2 µM [inhibitor, partial curve, poor fit]"},
      {"smiles": "CCC(CO)Nc1ncnc2c1cnn2-c1ccc(Cl)cc1", "note": "(centres undefined)", "Potency": "inconclusive: 70.8 µM [inhibitor, single point]"},
      {"smiles": "Cc1cccc(CN2C[C@]34C=C[C@H](O3)C(C(=O)N(C)Cc3nnc(C)o3)C4C2=O)c1", "note": "(some centres undefined)", "Potency": "inactive"},
      {"smiles": "COC(=O)NC1(C(F)(F)F)NC(=O)N(C2CCCCC2)C1=O", "note": "(centres undefined)", "Potency": "inconclusive: 2.51 µM [inhibitor, full curve, poor fit]"},
      {"smiles": "Cc1ccc(C)c(NC(=O)Cn2ccn3nc(-c4ccc(F)cc4)c(CO)c3c2=O)c1", "Potency": "inconclusive: 79.4 µM [inhibitor, single point]"},
      {"smiles": "O=c1c2c(n(Cc3ccccc3)n1-c1ccccc1)CN(Cc1ccc3c(c1)CCO3)CC2", "Potency": "inconclusive: 17.8 µM [inhibitor, full curve]"},
      {"smiles": "CN(C)c1ccc(C(CNS(=O)(=O)c2ccccc2)N2CCc3ccccc32)cc1", "note": "(centres undefined)", "Potency": "inconclusive: 56.2 µM [inhibitor, partial curve, poor fit]"}
    ]}
  ]
}
